Results deposited as PubChem BioAssay AID1224830 (NIAID, 2016)
This is one part, drawn at random, of about 18,000 reagents tested. About 2,900 of all reagents (16%) count as active. 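Calls are made per well; low scores hint the gene aids the LPS response, high scores that it dampens it.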 Repeated entries: four replicate wells of each siRNA pool.

Assay: 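Host factors that control LPS-induced TNF expression in human macrophages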 (primary screen)
System: human THP-1 monocytic leukaemia cells, TNF dual-luciferase reporter clone, PMA-differentiated to macrophage-like cells
Reagent: siRNA pool against human genes, 50 nM
Duration: LPS for 4 h, given about 3 days after siRNA transfection
Challenge: bacterial LPS (TLR4 ligand), 10 ng/ml
Detection: 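TNF firefly reporter luminescence divided by renilla, normalised to the plate median, then turned into a robust z-score for each replicate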
Scale: TNF reporter robust z-score: higher = stronger TNF reporter response to LPS
Hit rule: 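a well is active when its z-score exceeds 2.8 or falls below -1.5; control wells carry no call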

Depletion of TUSC2 came out at: TNF reporter robust z-score 0.17; inactive. With knock-down of TUSC2, the screen gave TNF reporter robust z-score 0.52; inactive. For TUSC2, the values are TNF reporter robust z-score -0.01; inactive. Against TUSC2, the values are TNF reporter robust z-score 0.11; inactive. UQCC3 scored TNF reporter robust z-score 0.96; inactive. Knock-down of UQCC3 gave: TNF reporter robust z-score 1.62; inactive.

Silencing of UQCC3 came out at: TNF reporter robust z-score 1.15; inactive. Knock-down of UQCC3 came out at: TNF reporter robust z-score 1.96; inactive. For RASGEF1C, the values are TNF reporter robust z-score 0.16; inactive. Depletion of RASGEF1C came out at: TNF reporter robust z-score 0.46; inactive. For RASGEF1C, the entry reads TNF reporter robust z-score -1.16; inactive. Against RASGEF1C the deposit lists TNF reporter robust z-score -0.31; inactive.

Knock-down of CUL5 resulted in: TNF reporter robust z-score 20.3; active. CUL5 gave TNF reporter robust z-score -1.04; inactive. Silencing of CUL5 came out at: TNF reporter robust z-score -0.76; inactive. Knock-down of CUL5 resulted in: TNF reporter robust z-score -0.33; inactive. EPYC scored TNF reporter robust z-score 5.69; active. With knock-down of EPYC, the screen gave TNF reporter robust z-score 0.56; inactive.

Silencing of EPYC resulted in: TNF reporter robust z-score -0.03; inactive. Knock-down of EPYC gave: TNF reporter robust z-score 0.74; inactive. Against DISC1 the deposit lists TNF reporter robust z-score -0.65; inactive. After knock-down of DISC1, the screen gave TNF reporter robust z-score -0.17; inactive. DISC1 gave TNF reporter robust z-score -1.05; inactive. DISC1 scored TNF reporter robust z-score -0.15; inactive.

After knock-down of SLC4A8 the results were TNF reporter robust z-score 0.77; inactive. SLC4A8 showed TNF reporter robust z-score 1.93; inactive. Against SLC4A8 the deposit lists TNF reporter robust z-score 2.33; inactive. After knock-down of SLC4A8, the record shows TNF reporter robust z-score 1.86; inactive. Against TRAPPC9, the entry reads TNF reporter robust z-score 0.94; inactive. For TRAPPC9 the deposit lists TNF reporter robust z-score 1.61; inactive.

With knock-down of TRAPPC9 the results were TNF reporter robust z-score -0.55; inactive. With knock-down of TRAPPC9 the results were TNF reporter robust z-score -0.24; inactive. MCEMP1 showed TNF reporter robust z-score -0.53; inactive. Depletion of MCEMP1 resulted in: TNF reporter robust z-score 0.13; inactive. Silencing of MCEMP1 gave: TNF reporter robust z-score -0.07; inactive. MCEMP1 gave TNF reporter robust z-score 0.17; inactive.

For FBXW10, the values are TNF reporter robust z-score -1.65; active. For FBXW10, the values are TNF reporter robust z-score -1.8; active. Silencing of FBXW10 came out at: TNF reporter robust z-score -0.9; inactive. Depletion of FBXW10 resulted in: TNF reporter robust z-score -0.49; inactive. TM6SF1 scored TNF reporter robust z-score -0.43; inactive. Knock-down of TM6SF1 gave: TNF reporter robust z-score 0.44; inactive.

Against TM6SF1 the deposit lists TNF reporter robust z-score 0.93; inactive. Silencing of TM6SF1 gave: TNF reporter robust z-score 0.81; inactive. BCAP31 showed TNF reporter robust z-score -0.92; inactive. With knock-down of BCAP31 the results were TNF reporter robust z-score -0.62; inactive. Against BCAP31 the deposit lists TNF reporter robust z-score -1.36; inactive. Depletion of BCAP31 resulted in: TNF reporter robust z-score -0.18; inactive.

Knock-down of USP30 resulted in: TNF reporter robust z-score -0.76; inactive. Depletion of USP30 resulted in: TNF reporter robust z-score -1.46; inactive. Knock-down of USP30 came out at: TNF reporter robust z-score -0.94; inactive. With knock-down of USP30, the screen gave TNF reporter robust z-score -0.04; inactive. Depletion of METTL9 resulted in: TNF reporter robust z-score -1.14; inactive. With knock-down of METTL9 the results were TNF reporter robust z-score -0.09; inactive.

METTL9 gave TNF reporter robust z-score -0.5; inactive. After knock-down of METTL9, the record shows TNF reporter robust z-score -0.64; inactive. Silencing of TRIM4 resulted in: TNF reporter robust z-score 0; inactive. Depletion of TRIM4 gave: TNF reporter robust z-score -0.16; inactive. TRIM4 gave TNF reporter robust z-score -1.11; inactive. Against TRIM4, the values are TNF reporter robust z-score -1.48; inactive.

Active calls (from the list above):
CUL5 | TNF reporter robust z-score = 20.3; Call = active
EPYC | TNF reporter robust z-score = 5.69; Call = active
FBXW10 | TNF reporter robust z-score = -1.65; Call = active
FBXW10 | TNF reporter robust z-score = -1.8; Call = active
